Test results: publication PMC2612750
For at least one entry, the source does not settle the construct or the ends of the probe. A negative result means that nothing was seen under these conditions. At least one verdict was read from the data and is not stated in words by the source. Weaker means in comparison with the reference protein, sequence or condition of that experiment.

Protein sequences, listed by entry. Tags and fused reporters are not part of them. Residues count along the entry.
UniProt P63015, 4-130: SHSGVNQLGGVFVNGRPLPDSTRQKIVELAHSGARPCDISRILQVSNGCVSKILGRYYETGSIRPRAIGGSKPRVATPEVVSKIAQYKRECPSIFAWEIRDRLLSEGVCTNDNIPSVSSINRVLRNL
UniProt P63015, 4-269: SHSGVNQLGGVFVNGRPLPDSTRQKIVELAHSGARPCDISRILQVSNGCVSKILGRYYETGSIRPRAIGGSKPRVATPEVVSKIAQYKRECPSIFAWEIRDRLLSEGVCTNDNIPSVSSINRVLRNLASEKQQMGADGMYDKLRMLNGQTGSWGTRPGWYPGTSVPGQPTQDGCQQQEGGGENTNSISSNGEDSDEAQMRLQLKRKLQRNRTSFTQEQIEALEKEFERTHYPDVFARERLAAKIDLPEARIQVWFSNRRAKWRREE

Columns and labels:
Pax6 GST-PD = Pax6 GST-PD (UniProt P63015); experiment: EMSA; conditions: EMSA: 0.5-1 ng 5'-end-labelled probe, 2 ug poly(dI-dC), room temperature 10 min, 5% PAGE in 0.5x TBE, competitor 50 ng cold P6CON (~50:1), binding buffer, recombinant protein, protein details: GST, label: 5'-end label (radioactive)
Pax6 GST-PD/HD = Pax6 GST-PD/HD (UniProt P63015); experiment: EMSA; conditions: EMSA: 0.5-1 ng 5'-end-labelled probe, 2 ug poly(dI-dC), room temperature 10 min, 5% PAGE in 0.5x TBE, competitor 50 ng cold P6CON (~50:1), binding buffer, recombinant protein, protein details: GST, label: 5'-end label (radioactive)
[1] = lower than P6CON, PD lower than PD/HD
[2] = lower than P6CON, higher than PD

Row | Sequence | binding result (Pax6 GST-PD) | binding result (Pax6 GST-PD/HD) | also measured
1 | ACTGCTGACCTAACTCTTGAGTTCTCCGGGAT (double strand) [Tgfb2 site 10] | no binding | no binding | 
2 | AGCCCTGAAGACATGCCTTCCAATCTGAGAC (double strand) [Tgfb2 site 9] | no binding | no binding | 
3 | ATCCGTCTCATCATACTTGAGTTAATGAGGCA (double strand) [Mab21l2 site 5] |  |  | binding result (Pax6 GST-PD; [1]): binds more weakly; binding result (Pax6 GST-PD/HD; [2]): binds more weakly
4 | CCCCAAAAGGAAAGTGAAGGATGTAATTAATGCC (double strand) [Mab21l2 site 1] |  |  | binding result (Pax6 GST-PD; [1]): binds more weakly; binding result (Pax6 GST-PD/HD; [2]): binds more weakly
5 | CCCGGAGAGCAGCGAAGTACAGCTCAGGCCG (double strand) [Mab21l2 site 2] | no binding | no binding | 
6 | GATAGATGGCTTTGATGCGTAAAACTTGAGAG (double strand) [Tgfb2 site 6] |  |  | binding result (Pax6 GST-PD; lower than P6CON): binds more weakly; binding result (Pax6 GST-PD/HD; lower than P6CON): binds more weakly
7 | GCTCCTTGATGGTGTATTAAAACGAAGTGGCAGCTCCT (double strand) [Mab21l2 site 4] | no binding | no binding | 
8 | TCCGGGTTTTTCCTCTCCTCTGGGTTGCGTT (double strand) [Mab21l2 site 3] | no binding | no binding | 
9 | TCCTGACCACAACTCTCTAGTGACTACTCCA (double strand) [Tgfb2 site 7] | no binding | no binding | 
10 | TGTCACACAGTATCATAACTTGACATTTTCTACTTCAACTTGCTCA (double strand) [Tgfb2 site 11/12] |  |  | binding result (Pax6 GST-PD; lower than P6CON): binds more weakly; binding result (Pax6 GST-PD/HD; lower than P6CON): binds more weakly
11 | TTAGCCACATCATTCACTCATCACACAAACTC (double strand) [Tgfb2 site 8] |  |  | binding result (Pax6 GST-PD; lower than P6CON): binds more weakly; binding result (Pax6 GST-PD/HD; lower than P6CON): binds more weakly
